The values below come from PMC6224402.

Amino acid sequences for entries named in this document (tags omitted).
UniProt Q9P1W9: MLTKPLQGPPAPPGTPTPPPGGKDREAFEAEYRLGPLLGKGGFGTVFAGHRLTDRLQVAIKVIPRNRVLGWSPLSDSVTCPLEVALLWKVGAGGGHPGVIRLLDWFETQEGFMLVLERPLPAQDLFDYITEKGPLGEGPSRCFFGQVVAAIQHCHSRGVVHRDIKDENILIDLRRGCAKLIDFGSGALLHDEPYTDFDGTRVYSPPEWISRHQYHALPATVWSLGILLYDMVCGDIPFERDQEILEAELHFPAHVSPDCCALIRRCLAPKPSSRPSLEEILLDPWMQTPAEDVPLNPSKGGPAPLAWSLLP

No constants are given. Whether binding was seen depends on the method and setting. In cells and extracts the contact can be indirect. Here binding means that the protein was enriched with, or labelled near, the bait; the list need not be complete.

This test deals with endogenous PIM2 (human (endogenous in MCF-7)) (UniProt Q9P1W9). The test is described as follows: affinity purification with mass spectrometry; mass spectrometry of the immunoprecipitated PIM2 complex in MCF-7 cells.

B1: endogenous HK2 (enzyme, UniProt P52789 1-917)
chain: MIASHLLAYFFTELNHDQVQKVDQYLYHMRLSDETLLEISKRFRKEMEKGLGATTHPTAAVKMLPTFVRSTPDGTEHGEFLALDLGGTNFRVLWVKVTDNGLQKVEMENQIYAIPEDIMRGSGTQLFDHIAECLANFMDKLQIKDKKLPLGFTFSFPCHQTKLDESFLVSWTKGFKSSGVEGRDVVALIRKAIQRRGDFDIDIVAVVNDTVGTMMTCGYDDHNCEIGLIVGTGSNACYMEEMRHIDMVEGDEGRMCINMEWGAFGDDGSLNDIRTEFDQEIDMGSLNPGKQLFEKMISGMYMGELVRLILVKMAKEELLFGGKLSPELLNTGRFETKDISDIEGEKDGIRKAREVLMRLGLDPTQEDCVATHRICQIVSTRSASLCAATLAAVLQRIKENKGEERLRSTIGVDGSVYKKHPHFAKRLHKTVRRLVPGCDVRFLRSEDGSGKGAAMVTAVAYRLADQHRARQKTLEHLQLSHDQLLEVKRRMKVEMERGLSKETHASAPVKMLPTYVCATPDGTEKGDFLALDLGGTNFRVLLVRVRNGKWGGVEMHNKIYAIPQEVMHGTGDELFDHIVQCIADFLEYMGMKGVSLPLGFTFSFPCQQNSLDESILLKWTKGFKASGCEGEDVVTLLKEAIHRREEFDLDVVAVVNDTVGTMMTCGFEDPHCEVGLIVGTGSNACYMEEMRNVELVEGEEGRMCVNMEWGAFGDNGCLDDFRTEFDVAVDELSLNPGKQRFEKMISGMYLGEIVRNILIDFTKRGLLFRGRISERLKTRGIFETKFLSQIESDCLALLQVRAILQHLGLESTCDDSIIVKEVCTVVARRAAQLCGAGMAAVVDRIRENRGLDALKVTVGVDGTLYKLHPHFAKVMHETVKDLAPKCDVSFLQSEDGSGKGAALITAVACRIREAGQR
As to B1, the binding entry was “binds”.
